Test: general procedure: Fmoc solid-phase peptide synthesis; Champion PEG-PS resin derivatized with Fmoc-Rink linker; HBTU/DIEA
Details: lipidation step

Q: With “Ac-WMEWDREINNYTSLIHSLIEESQNQQEKNEQELLGSGC(Cholesteryl)-NH2” as the substance, how does the step yield read?
A: The step yield was 48%.

— patent publication US8629101B2 (priority 2007, dated 2014)
